These are yes or no findings as the source states them, for the method shown. A result given as binding can be weak or reduced; the word gives no strength. Where a sequence is shown, tags or fusion partners need not be part of it.
Columns and labels:
cYFP-OsTON1b (rice) [1] = test: BiFC, nYFP-GW7 co-transformed with cYFP-OsTON1b into Arabidopsis protoplasts
cYFP-OsTON2 (rice) [2] = test: BiFC, nYFP-GW7 co-transformed with cYFP-OsTON2 into Arabidopsis protoplasts
cYFP-OsTON1b (rice) [3] = test: BiFC in Arabidopsis protoplasts (FIG. 2j)
cYFP-OsTON2 (rice) [4] = test: BiFC in Arabidopsis protoplasts (FIG. 2j)

Measured: binding

B1: nYFP-tagged GW7 (protein, not shown: small tags and cut ends)
chain: MPPARVLGGGGGGGGLGDEAPELERQMGCMAGIFQIFDRRQRLLTARRRRPPPKMLPPGPGHTLPRSSSNVAAQSSSTSKIVLEKTFSKSMTENSSLSIESSRASCSSSSCSSFSSLDGNKSIQQELPYINEQLFVQRPLKSSPSLKDPVMDTRSGQSNIGFRDIVKDSINRDTGGLTVKTSVKDARRNGQYKDSPRPLLLSKSMDGTYVIGIDRSTKVPANAVESSRRFPEQSRFSCDDRRLLRPVEAQENKKPSTRLKELPRLSLDSRKETLSSSSRQKTFSYRRTDDSLMDALRPQDSPGHRRASSVIAKLMGLEEAPNATGVLTVDSYEPERSPRPAEDTQKEHPVPSPRRFCQDPRESLPKDESPAMKTKPSPRILTESAPWRQQEKIATSSKASQCRDAEVRPRTASLYAYIERRGGGLEFLECNKDFRALRILEALHAKDAKRQNDGNGALTVAAQQAGDALNTSSRHFQPPIVVMKPARSTEKQPGVSLASVDPLAGFRNLRKLQARDAPCIGEHETSTNEKVHSRISRAQSKSDEPASRASSPRPTGSSSPRTVQRKAESERRSRPPVSPKSPSKKSSEAASPGGRTRTKPSQGKNHRDNEVSKSPRSRISMVKEIDISIMDFQKPLASTPSHKGTPSVLASDQKINSLENAPSPISVLDTSYYHTRLSYSFKDGETHSSEECWNPNSLPDTPQSKTSSEVSQIKPENFEALIQKLEQLQSMNDEVANKKDHQYIYEILLASGLLHKELSFVAMPGQAWPSSCLINPELFLILEQTKPDFASADQTVTKSSKANTEKLHRRIVFDLVNEITAQKMNIHCSASQSAKSLQLRKYNGWRLFKDLCTEVDRLQSESSAIKCSEEDGDERMLLVEDPLNGIEDWSFDSESPSTVLEIERLIYKDLIDEVIWDEATGKMQGGQWNLKRQLSFSSTS
binds: all assays above

From US20180020629A1
